Results are given in words; binding and its absence hold for the method and conditions named. Sequences can lack the tags named with a protein.
What was measured:
Test in all cases: pull-down; ~5 µg immobilized GST-NESs, 7.5 µM ScRanGTP and 2.5 µM HsCRM1 (wild type or mutant) in 200 µL; both purified
[1] = target: T1, GST-Hxk2 peptide (false positive NES)
T1 sequence: DVPKELMQQIENFEKIFTV

Protein sequences, listed by entry. Tags and fused reporters are not part of them. Lines headed by an entry give the natural chain unless they say otherwise; changes in a name come on top.
UniProt O14980: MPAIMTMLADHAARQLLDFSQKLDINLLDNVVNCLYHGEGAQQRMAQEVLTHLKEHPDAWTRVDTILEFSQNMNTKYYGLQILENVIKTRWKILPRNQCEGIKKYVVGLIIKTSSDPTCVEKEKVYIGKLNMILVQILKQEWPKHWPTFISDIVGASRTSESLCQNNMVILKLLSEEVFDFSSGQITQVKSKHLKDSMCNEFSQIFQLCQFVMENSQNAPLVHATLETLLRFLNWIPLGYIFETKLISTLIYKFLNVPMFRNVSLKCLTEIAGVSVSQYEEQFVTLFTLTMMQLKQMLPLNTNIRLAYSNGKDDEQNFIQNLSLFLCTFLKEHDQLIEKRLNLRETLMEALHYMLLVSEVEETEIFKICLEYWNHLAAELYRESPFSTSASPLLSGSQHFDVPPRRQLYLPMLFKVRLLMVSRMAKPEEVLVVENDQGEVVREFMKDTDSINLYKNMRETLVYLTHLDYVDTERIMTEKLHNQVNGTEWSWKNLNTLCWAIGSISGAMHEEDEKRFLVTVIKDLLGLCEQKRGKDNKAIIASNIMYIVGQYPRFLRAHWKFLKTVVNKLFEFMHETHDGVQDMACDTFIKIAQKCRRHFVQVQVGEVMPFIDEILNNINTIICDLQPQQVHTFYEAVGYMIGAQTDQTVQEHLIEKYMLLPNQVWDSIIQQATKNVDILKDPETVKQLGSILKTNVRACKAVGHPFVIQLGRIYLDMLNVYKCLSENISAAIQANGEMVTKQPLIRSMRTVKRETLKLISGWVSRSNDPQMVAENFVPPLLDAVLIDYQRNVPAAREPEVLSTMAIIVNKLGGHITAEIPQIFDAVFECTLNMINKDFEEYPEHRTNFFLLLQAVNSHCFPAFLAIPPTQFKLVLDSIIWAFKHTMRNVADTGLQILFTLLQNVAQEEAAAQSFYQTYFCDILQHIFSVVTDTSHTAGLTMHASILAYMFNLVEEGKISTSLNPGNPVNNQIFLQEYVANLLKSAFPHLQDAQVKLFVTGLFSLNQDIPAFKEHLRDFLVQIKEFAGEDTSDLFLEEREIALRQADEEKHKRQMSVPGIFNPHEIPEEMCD

[2] = target: T2, GST-COMMD1 peptide (false positive NES)
T2 sequence: KTLSEVEESISTLISQPN

[3] = target: T3, GST-DEAF1 peptide (false positive NES)
T3 sequence: SWLYLEEMVNSLLNTAQQ

Row | Substance | binding [1] | binding [2] | binding [3]
1 | human CRM1 (HsCRM1), wild type (from UniProt O14980 1-1071) (receptor) | no binding (tested: 2.5 µM) | no binding (tested: 2.5 µM) | no binding (tested: 2.5 µM)
2 | human CRM1 mutant HsCRM1(K568M) (from UniProt O14980 1-1071) (receptor) | no binding (tested: 2.5 µM) |  | 

Reference: article PMC5358978, “Nuclear export receptor CRM1 recognizes diverse conformations in nuclear export signals” (eLife, 2017)
